Results on six sequences are retold here after patent US20230159990.

Sequences of proteins named here, by UniProt entry; tags and fusion partners are left off. Residues count along the entry.
UniProt P16422, 24-265: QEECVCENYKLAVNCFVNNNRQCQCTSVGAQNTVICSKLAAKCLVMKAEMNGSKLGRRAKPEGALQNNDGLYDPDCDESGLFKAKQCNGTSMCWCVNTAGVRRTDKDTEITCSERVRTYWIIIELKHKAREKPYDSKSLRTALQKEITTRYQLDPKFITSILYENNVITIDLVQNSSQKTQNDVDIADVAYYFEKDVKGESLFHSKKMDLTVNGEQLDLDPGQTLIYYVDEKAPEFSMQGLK

For part of these data: For at least one entry, the source does not settle the construct or the ends of the probe. For part of these data: Negatives hold for the conditions tested.

For one data set, the target named is EPCAM (UniProt P16422). Description: activity in cells. The note with it: increasing polymerase activity with more EPCAM-expressing cells; indirect readout; protein on the cell surface; dose not given here.
Data set [1] has as its system DNA polymerase (species not stated). Description: activity assay. The note with it: polymerase elongation destroys hemin DNAzyme peroxidase activity; dose- and time-dependent; purified recombinant protein; folded or branched DNA.
The test system is the same in data set [2]. Nature of the data set: inhibition of the protein. The note with it: purified recombinant protein, dose not given here.

For the sequence “CAGACGCAACCTCTGTAGTGCAATGTACAGTATTG / CACTACAGAGGTTGCGTCTGTCCCACGTTGTCATGGGGGGTTGGCCTG [EPCAM aptamer/inverter recognition nanostructure]”, in the data set with EPCAM, the “functional effect of the aptamer” value is on record as “active”. For the sequence “CTGGGAGGGAGGGAGGGAATGCTAACGCATTGTCGATAGCTCTGTCGCTATCGACAATGCGTT [G-quadruplex hemin DNAzyme catalytic nanostructure 1]”, the “activity on this sequence” value in data set [1] is reported as “active”. On to “TGCAAGGCCGGCTTCGCGGGCAATGTACAGTATTG / CCCGCGAAGCCGGCCTTGCACATGCCGGAGCCGTTGTCGA / GAGTACCGCCCCCCGGTTTGGTACGGCGGCGGTGCGACAA [Recognition nanostructure + scrambled sequence]”, for which the “functional effect of the aptamer” value in data set [2] (no signal even with 10^11 copies of scrambled sequence, polymerase stays inhibited) is listed as “active”.

With “TGCAAGGCCGGCTTCGCGGGCAATGTACAGTATTG / CCCGCGAAGCCGGCCTTGCACATGCCGGAGCCGTTGTCGA / TCGACAACGGCTCCGGCATGTGCAAGGCCGGCTTCGCGGG [Recognition nanostructure + DNA target (human beta actin)]”, the “functional effect of the aptamer” value in data set [2] (target hybridisation activates polymerase (inhibition relieved)) was “not active”. “TGCAAGGCCGGCTTCGCGGGCAATGTACAGTATTG / CCCGCGAAGCCGGCCTTGCACATGCCGGAGCCGTTGTCGA / UCGACAACGGCUCCGGCAUGUGCAAGGCCGGCUUCGCGGG [Recognition nanostructure + RNA target (human beta actin)]”: the “functional effect of the aptamer” value in data set [2] (RNA target relieves inhibition as efficiently as DNA target) was “not active”.

On to “TGCAAGGCCGGCTTCGCGGGCAATGTACAGTATTG / CCCGCGAAGCCGGCCTTGCACATGCCGGAGCCGTTGTCGA [Recognition nanostructure (polymerase aptamer + inverter)]”, for which the “functional effect of the aptamer” value in data set [2] (binds and inhibits DNA polymerase, in solution and surface immobilised) is “active”.
